The results in this text go back to patent US20200188361A1, “USE OF MITOCHONDRIAL ACTIVITY INHIBITORS FOR THE TREATMENT OF POOR PROGNOSIS ACUTE MYELOID LEUKEMIA” (UNIVERSITE DE MONTREAL, priority 2016, published 2020).

The subject of test [1] is HOX-med/low AML patient cells. The experiment in a line: Primary chemical screen of 60 compounds, cell dose-response viability assay (CellTiterGlo, 6 days). The class given is cell-based. The settings on record: Homo sapiens, 144 h, mean over HOX-med/low patient specimens, 6 days culture, top concentration 10 μM or 20 μM. As for the experimental part: (§1) frozen AML mono-nucleated cells were thawed at 37° C. in Iscove's modified Dulbecco's medium (IMDM) containing 20% FBS and DNase I (100 μg/mL).
(§2) All powders were dissolved in DMSO and diluted in culture medium immediately before use. Final DMSO concentration in all conditions was 0.1%. The 60 compounds were purchased from various suppliers including Santa Cruz, Selleckchem, Calbiochem, AdooQ Bioscience, Cayman chemical and Synkinase.
(§3) Patient cells were seeded in 384-well plates at a density of 5,000 cells in 50 μL per well. In the initial screen, compounds were added to seeded cells in serial dilutions (10 dilutions, 1:3, starting from 10 μM or 20 μM), in duplicates. Cells treated with 0.1% DMSO without additional compound were used as negative controls. Viable cell counts per well were evaluated after 6 days of culture using the CellTiterGlo® assay (Promega®) according to the manufacturer's instruction.
(§4) Using high expression of HOXA9 and HOXA10 as a surrogate for the detection of HOX-network-high patient samples, the survival of HOX-high versus HOX-med/low specimens contacted with 60 inhibitors targeting receptor tyrosine kinases (RTK), members of the RAS and PI3K pathways, was assessed (FIG. 2A, Table 4).

The subject of test [2] is HOX-high AML patient cells. The test is described as above. It is filed as cell-based, human. As for the experimental part: as §1, §2, §3, §4

Each structure is given as a SMILES string. Where a name gives a salt, the structure may show the parent alone.

As to `Cc1ccc(NC(=O)c2ccc(CN3CCN(C)CC3)cc2)cc1Nc1nccc(-c2cccnc2)n1` [Imatinib Mesylate], the EC50 in test [1] came out at 7.28 µM; in test [2] (Homo sapiens, 144 h, primary screen, mean over HOX-high patient specimens, 6 days culture, top concentration 10 μM or 20 μM), 7.93 µM. In test [2] (ratio of mean EC50 HOX-high to mean EC50 HOX-med/low), the “FOLD CHANGE High/Med-low” value was 1.1.
